# Source: PMC7483473
# Protein sequences, listed by entry. Tags and fused reporters are not part of them. Residues count along the entry.
# UniProt P41594, residues 21-1212: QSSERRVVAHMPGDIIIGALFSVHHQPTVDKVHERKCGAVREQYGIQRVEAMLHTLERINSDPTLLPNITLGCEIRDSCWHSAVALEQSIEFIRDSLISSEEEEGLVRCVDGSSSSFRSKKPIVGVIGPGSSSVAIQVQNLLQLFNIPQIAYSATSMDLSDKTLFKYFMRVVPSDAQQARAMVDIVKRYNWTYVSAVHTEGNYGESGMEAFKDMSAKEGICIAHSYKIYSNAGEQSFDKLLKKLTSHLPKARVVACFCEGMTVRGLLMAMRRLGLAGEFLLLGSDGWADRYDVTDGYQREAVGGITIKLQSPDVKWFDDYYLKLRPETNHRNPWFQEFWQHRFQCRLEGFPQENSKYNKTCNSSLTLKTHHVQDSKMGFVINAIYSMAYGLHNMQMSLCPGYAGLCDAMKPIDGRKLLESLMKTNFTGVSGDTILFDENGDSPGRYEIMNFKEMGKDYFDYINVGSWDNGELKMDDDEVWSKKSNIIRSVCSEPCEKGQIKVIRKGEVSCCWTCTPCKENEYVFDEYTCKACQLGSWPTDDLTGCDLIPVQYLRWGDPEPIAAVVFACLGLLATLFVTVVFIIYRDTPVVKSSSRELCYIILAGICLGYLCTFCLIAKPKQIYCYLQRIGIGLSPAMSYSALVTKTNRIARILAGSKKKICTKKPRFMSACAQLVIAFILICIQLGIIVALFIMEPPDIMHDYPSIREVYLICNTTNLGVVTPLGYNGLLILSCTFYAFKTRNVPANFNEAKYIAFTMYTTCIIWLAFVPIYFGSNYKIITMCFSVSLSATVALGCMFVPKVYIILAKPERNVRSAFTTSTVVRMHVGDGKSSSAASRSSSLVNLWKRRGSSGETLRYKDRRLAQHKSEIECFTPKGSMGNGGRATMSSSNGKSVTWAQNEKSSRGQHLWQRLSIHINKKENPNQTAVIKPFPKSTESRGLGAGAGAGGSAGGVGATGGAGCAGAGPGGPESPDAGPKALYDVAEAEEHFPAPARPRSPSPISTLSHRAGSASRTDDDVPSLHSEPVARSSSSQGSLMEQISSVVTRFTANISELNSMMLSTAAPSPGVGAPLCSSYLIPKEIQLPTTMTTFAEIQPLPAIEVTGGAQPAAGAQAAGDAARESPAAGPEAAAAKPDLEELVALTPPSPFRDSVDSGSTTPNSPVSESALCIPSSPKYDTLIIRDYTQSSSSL
# No constants are given. Whether binding was seen depends on the method and setting. In cells and extracts the contact can be indirect. Some results given as binding are weak or reduced against the parent protein; the word gives no strength.
# Target: mNeonGreen labeled metabotropic glutamate receptor 5 (UniProt P41594)
# Test: single-molecule pull-down (SiMPull) with stepwise photobleaching; detergent isolation with n-dodecyl β-D-maltoside (three concentrations for mNG-ADRβ2; 1% DDM for the mGluRs), biotin-streptavidin pull-down on a slide
substance,measurement,value
mNeonGreen labeled metabotropic glutamate receptor 5 (from UniProt P41594 21-1212),binding,binds
